The supplement of paper PMC10849652
Some of the results follow.

Sequences of proteins named here, by UniProt entry; tags and fusion partners are left off. A change or cut given only in a name is not applied to a line headed by its entry.
UniProt A1L170: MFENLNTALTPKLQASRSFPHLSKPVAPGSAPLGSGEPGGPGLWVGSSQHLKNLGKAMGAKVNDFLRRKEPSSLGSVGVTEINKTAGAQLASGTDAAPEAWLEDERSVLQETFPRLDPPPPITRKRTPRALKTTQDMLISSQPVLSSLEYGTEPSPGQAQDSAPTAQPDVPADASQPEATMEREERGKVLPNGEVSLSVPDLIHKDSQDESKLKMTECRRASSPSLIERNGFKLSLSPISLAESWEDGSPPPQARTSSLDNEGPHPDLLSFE
UniProt Q99622: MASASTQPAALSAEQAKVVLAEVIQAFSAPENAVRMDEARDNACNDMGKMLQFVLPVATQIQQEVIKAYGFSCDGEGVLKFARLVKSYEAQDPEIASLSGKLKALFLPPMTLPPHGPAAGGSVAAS
UniProt Q9NX04: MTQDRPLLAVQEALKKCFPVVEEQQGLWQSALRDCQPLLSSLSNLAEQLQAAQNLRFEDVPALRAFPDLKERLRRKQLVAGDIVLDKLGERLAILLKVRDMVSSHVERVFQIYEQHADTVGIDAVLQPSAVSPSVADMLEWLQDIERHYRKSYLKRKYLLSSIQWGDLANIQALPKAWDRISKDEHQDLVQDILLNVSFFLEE
UniProt Q96L46: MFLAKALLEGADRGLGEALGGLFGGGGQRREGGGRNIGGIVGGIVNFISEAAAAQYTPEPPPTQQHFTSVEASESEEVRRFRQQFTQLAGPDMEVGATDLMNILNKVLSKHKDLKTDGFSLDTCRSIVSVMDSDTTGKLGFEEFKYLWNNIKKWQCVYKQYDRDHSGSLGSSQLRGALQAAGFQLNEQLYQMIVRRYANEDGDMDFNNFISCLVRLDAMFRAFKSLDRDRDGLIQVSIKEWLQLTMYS
UniProt P23280: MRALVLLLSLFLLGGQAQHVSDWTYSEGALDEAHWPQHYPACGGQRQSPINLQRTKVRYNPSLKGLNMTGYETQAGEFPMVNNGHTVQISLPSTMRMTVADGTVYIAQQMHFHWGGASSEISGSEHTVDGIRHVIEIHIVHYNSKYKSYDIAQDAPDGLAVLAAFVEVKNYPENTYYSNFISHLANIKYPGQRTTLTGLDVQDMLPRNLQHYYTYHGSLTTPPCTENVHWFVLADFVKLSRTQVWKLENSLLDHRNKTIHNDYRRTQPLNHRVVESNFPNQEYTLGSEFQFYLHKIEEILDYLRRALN
UniProt Q96LW7: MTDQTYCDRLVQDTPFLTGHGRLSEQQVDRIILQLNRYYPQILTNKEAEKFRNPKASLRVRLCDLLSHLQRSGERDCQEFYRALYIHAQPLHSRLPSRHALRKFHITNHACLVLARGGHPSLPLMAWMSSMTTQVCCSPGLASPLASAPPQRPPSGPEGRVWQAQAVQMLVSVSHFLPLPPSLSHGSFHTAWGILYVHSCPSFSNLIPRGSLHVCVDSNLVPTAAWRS
UniProt Q9P1Y5: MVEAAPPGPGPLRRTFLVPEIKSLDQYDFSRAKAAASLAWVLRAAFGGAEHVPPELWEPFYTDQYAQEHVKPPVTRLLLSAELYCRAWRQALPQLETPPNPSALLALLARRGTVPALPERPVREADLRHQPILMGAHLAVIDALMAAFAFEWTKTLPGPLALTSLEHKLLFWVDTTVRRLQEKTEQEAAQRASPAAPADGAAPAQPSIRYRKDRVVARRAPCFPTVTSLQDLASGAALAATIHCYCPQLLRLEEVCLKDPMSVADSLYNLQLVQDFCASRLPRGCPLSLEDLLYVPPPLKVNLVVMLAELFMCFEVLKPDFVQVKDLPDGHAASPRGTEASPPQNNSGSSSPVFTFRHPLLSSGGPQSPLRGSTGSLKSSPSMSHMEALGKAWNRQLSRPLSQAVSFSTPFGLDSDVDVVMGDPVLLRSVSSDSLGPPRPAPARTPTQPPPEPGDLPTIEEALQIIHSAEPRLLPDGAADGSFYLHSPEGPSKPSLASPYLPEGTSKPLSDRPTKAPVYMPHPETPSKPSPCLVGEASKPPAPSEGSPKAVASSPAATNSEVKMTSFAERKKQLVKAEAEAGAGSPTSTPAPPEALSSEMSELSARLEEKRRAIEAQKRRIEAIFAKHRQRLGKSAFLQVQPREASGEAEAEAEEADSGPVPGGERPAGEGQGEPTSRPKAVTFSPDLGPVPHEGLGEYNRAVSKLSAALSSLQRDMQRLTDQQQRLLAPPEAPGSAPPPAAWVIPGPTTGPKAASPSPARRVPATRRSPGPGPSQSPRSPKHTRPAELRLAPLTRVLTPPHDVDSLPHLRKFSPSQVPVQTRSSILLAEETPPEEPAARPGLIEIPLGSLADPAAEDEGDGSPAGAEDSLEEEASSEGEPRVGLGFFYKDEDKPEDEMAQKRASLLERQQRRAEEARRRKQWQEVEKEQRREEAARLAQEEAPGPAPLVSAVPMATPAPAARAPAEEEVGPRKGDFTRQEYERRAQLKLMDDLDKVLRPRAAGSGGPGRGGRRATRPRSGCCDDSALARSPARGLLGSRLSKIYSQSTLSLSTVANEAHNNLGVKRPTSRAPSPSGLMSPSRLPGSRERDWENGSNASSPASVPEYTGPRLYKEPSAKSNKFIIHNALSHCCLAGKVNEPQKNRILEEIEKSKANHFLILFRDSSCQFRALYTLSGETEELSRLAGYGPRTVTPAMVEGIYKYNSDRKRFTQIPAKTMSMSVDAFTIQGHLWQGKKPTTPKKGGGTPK
UniProt Q16581: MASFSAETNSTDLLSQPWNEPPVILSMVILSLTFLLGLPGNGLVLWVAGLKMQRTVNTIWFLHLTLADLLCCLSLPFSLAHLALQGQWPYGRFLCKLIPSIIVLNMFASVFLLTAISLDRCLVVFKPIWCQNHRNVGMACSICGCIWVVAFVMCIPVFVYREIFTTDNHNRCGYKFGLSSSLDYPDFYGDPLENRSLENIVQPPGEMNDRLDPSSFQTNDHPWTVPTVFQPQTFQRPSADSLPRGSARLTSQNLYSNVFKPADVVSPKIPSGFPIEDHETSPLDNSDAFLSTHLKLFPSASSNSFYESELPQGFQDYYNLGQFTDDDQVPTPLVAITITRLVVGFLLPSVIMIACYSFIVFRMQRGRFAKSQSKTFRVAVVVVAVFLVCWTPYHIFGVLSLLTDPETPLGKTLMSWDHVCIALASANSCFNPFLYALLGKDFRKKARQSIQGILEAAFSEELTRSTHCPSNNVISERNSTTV
UniProt Q86VG3: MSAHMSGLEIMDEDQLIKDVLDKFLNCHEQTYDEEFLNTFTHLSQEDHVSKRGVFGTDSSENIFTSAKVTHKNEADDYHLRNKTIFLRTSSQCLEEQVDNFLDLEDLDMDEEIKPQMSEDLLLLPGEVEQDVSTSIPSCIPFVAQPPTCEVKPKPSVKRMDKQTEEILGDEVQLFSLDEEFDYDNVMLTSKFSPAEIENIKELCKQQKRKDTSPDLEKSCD
UniProt Q9BVC5: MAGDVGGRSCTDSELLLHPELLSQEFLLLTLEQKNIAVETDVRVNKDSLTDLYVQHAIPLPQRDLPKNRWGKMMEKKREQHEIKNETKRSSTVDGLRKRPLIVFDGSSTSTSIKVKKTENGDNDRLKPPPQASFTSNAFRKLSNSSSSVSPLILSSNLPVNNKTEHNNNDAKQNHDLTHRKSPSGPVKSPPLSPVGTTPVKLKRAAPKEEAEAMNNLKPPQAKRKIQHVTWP
UniProt Q9BSU1: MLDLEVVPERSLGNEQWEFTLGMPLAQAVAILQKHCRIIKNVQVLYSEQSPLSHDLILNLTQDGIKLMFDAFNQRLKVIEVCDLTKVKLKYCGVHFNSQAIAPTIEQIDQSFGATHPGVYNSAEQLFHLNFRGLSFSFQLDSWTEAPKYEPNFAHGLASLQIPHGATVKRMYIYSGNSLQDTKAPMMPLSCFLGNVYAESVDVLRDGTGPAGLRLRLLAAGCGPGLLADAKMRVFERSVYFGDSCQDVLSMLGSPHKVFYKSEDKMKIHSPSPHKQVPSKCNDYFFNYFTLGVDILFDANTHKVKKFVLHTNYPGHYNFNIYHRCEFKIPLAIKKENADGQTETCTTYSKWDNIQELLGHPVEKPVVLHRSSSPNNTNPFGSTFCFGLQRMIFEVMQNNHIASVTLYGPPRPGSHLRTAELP
UniProt Q9NWQ9: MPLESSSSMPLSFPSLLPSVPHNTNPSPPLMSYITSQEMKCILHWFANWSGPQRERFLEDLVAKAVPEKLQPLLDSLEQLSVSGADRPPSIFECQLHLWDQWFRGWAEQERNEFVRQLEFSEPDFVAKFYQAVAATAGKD
UniProt Q7Z6I8: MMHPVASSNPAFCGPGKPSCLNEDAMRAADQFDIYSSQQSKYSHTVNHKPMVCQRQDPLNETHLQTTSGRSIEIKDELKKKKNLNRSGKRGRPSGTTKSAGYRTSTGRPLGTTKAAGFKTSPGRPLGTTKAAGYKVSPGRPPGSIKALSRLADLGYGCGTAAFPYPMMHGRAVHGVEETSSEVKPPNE

Experiments:
Experiment in all cases: log2 fold change, soluble protein after heating vs DMSO (PISA); higher = thermal stabilisation; K562 lysate, 10 uM; active = over 0.2 and 3.5 SD of the protein, either way, in both replicates (recomputed)
Tubastatin A = compound: CN1CCc2c(c3ccccc3n2Cc2ccc(C(=O)NO)cc2)C1 [Tubastatin A]
Procedure, shortened: (§1)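 Quantification was by TMTpro 16plex LC-MS/MS with equalised channel sums, applied to the supernatant after 21,000xg for 90 min. Samples were crude K562 extract at 1 mg/mL protein in PBS pH 7.4 with 1 mM MgCl2, treated with 10 μM compound for 30 min, heated for 3 min across 48°C-58°C, pooled and brought to 0.5% NP-40 at 4°C. Values are log-two fold changes in thermal stability relative to solvent controls, from duplicates.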

defactinib = compound: CNC(=O)c1ccc(Nc2ncc(C(F)(F)F)c(NCc3nccnc3N(C)S(C)(=O)=O)n2)cc1 [defactinib]
Procedure, shortened: as §1

[1] = compound: COc1cc2nc(-c3cc(F)ccc3O)nc(N[C@@H]3CNC[C@H]3C(C)(C)O)c2cc1OC
Procedure, shortened: as §1

lapatinib = compound: CS(=O)(=O)CCNCc1ccc(-c2ccc3ncnc(Nc4ccc(OCc5cccc(F)c5)c(Cl)c4)c3c2)o1 [lapatinib]
Procedure, shortened: as §1

[2] = compound: CNC(=O)C1=CC=CC=C1NC2=NC(=NC=C2Cl)NC3=C(C=C(C=C3)N4CCOCC4)OC
Procedure, shortened: as §1

[3] = compound: CNc1nc(-c2ccc3c(N)n[nH]c3c2)cc(N2C[C@@H](C(=O)NC3CCCCC3)CC[C@H]2C)n1
Procedure, shortened: as §1

encorafenib = compound: COC(=O)N[C@@H](C)CNc1nccc(-c2cn(C(C)C)nc2-c2cc(Cl)cc(NS(C)(=O)=O)c2F)n1 [encorafenib]
Procedure, shortened: as §1

[4] = compound: COC(=O)[C@H](CCSC)NC(=O)C1=C(C=C(C=C1)NC[C@H](CS)N)C2=CC=CC=C2
Procedure, shortened: as §1

alisertib = compound: COc1cc(Nc2ncc3c(n2)-c2ccc(Cl)cc2C(c2c(F)cccc2OC)=NC3)ccc1C(=O)O [alisertib]
Procedure, shortened: as §1

gefitinib = compound: COc1cc2ncnc(Nc3ccc(F)c(Cl)c3)c2cc1OCCCN1CCOCC1 [gefitinib]
Procedure, shortened: as §1

pictilisib = compound: CS(=O)(=O)N1CCN(Cc2cc3nc(-c4cccc5[nH]ncc45)nc(N4CCOCC4)c3s2)CC1 [pictilisib]
Procedure, shortened: as §1

crizotinib = compound: C[C@@H](Oc1cc(-c2cnn(C3CCNCC3)c2)cnc1N)c1c(Cl)ccc(F)c1Cl [crizotinib]
Procedure, shortened: as §1

duvelisib = compound: C[C@H](Nc1ncnc2nc[nH]c12)c1cc2cccc(Cl)c2c(=O)n1-c1ccccc1 [duvelisib]
Procedure, shortened: as §1

tozasertib = compound: Cc1cc(Nc2cc(N3CCN(C)CC3)nc(Sc3ccc(NC(=O)C4CC4)cc3)n2)n[nH]1 [tozasertib]
Procedure, shortened: as §1

doramapimod = compound: Cc1ccc(-n2nc(C(C)(C)C)cc2NC(=O)Nc2ccc(OCCN3CCOCC3)c3ccccc23)cc1 [doramapimod]
Procedure, shortened: as §1

bafetinib = compound: Cc1ccc(NC(=O)c2ccc(CN3CC[C@H](N(C)C)C3)c(C(F)(F)F)c2)cc1Nc1nccc(-c2cncnc2)n1 [bafetinib]
Procedure, shortened: as §1

alvocidib = compound: CN1CC[C@H](c2c(O)cc(O)c3c(=O)cc(-c4ccccc4Cl)oc23)[C@H](O)C1 [alvocidib]
Procedure, shortened: as §1

[5] = compound: C[C@H](C1=CC=C(C=C1)C(=O)NC2=C3C=CNC3=NC=C2)N
Procedure, shortened: as §1

gandotinib = compound: Cc1cc(Nc2cc(CN3CCOCC3)c3nc(C)c(Cc4ccc(Cl)cc4F)n3n2)n[nH]1 [gandotinib]
Procedure, shortened: as §1

[6] = compound: Cc1cccc(CC(=O)N2CCc3c2ccc(-c2cn(C)c4ncnc(N)c24)c3F)n1
Procedure, shortened: as §1

Measured: log2 fold change

C1orf226 isoform 2 (UniProt A1L170)
inactive: Tubastatin A 0.183 | defactinib 0.006 | [1] 0.169 | lapatinib -0.002

CA2 (UniProt P00918)
inactive: Tubastatin A 0.138 | [2] -0.036 | defactinib 0.124 | [3] 0.328 | encorafenib 0.06 | [4] -0.014 | alisertib -0.031 | [1] -0.009 | gefitinib 0.04 | lapatinib 0.002 | pictilisib -0.035 | crizotinib 0.07 | duvelisib 0.058 | tozasertib -0.057 | doramapimod -0.013 | bafetinib 0.034

CAPNS1 (UniProt U3KPR7)
inactive: alisertib -0.069 | [1] 0.024 | gefitinib 0.165 | lapatinib -0.052 | pictilisib -0.083 | bafetinib -0.194

Random excerpt: 2 records from the list, in no set order.
C1orf226 isoform 2 (UniProt A1L170)
inactive: Tubastatin A 0.183 | defactinib 0.006 | [1] 0.169 | lapatinib -0.002

CAPNS1 (UniProt U3KPR7)
inactive: alisertib -0.069 | [1] 0.024 | gefitinib 0.165 | lapatinib -0.052 | pictilisib -0.083 | bafetinib -0.194

Additional results:

CAPNS1 (UniProt K7ES78)
inactive: Tubastatin A -0.074 | [2] 0.001 | defactinib 0.035 | [3] -0.068 | [1] -0.083 | lapatinib 0.162 | crizotinib 0.158 | duvelisib 0.17 | doramapimod -0.08

C12orf57 (UniProt Q99622)
inactive: [2] -0.099 | defactinib 0.019 | [3] -0.309 | alisertib 0.11 | gefitinib -0.195 | crizotinib 0.076 | duvelisib 0.101 | doramapimod 0.04

C1orf109 (UniProt Q9NX04)
inactive: Tubastatin A -0.351 | [2] 0.093 | [3] 0.283 | encorafenib 0.043 | [4] -0.003 | alisertib 0.018 | [1] -0.076 | gefitinib -0.041 | lapatinib 0.069 | crizotinib -0.028 | duvelisib 0.11 | tozasertib 0.089 | doramapimod 0.037

CAPNS2 (UniProt Q96L46)
inactive: Tubastatin A 0.153

CA6 (UniProt P23280)
inactive: [2] -0.125

CALR (UniProt K7EJB9)
inactive: alisertib 0.047 | [1] 0.008 | gefitinib -0.03 | lapatinib -0.107

CARD19 (UniProt Q96LW7)
inactive: crizotinib -0.022 | doramapimod -0.021

CAMSAP3 isoform 2 (UniProt Q9P1Y5)
inactive: defactinib -0.073

C3AR1 (UniProt Q16581)
inactive: alvocidib 0.055 | alisertib 0.358 | gefitinib 0.053 | pictilisib -0.023 | crizotinib 0.02 | [5] -0.025 | gandotinib 0.043 | doramapimod -0.01 | bafetinib 0.111 | [6] 0.099

C11orf74 (UniProt Q86VG3)
inactive: Tubastatin A -0.066 | [2] -0.088 | defactinib 0.02 | [3] -0.137 | encorafenib 0.073 | [4] -0.077 | crizotinib 0.011 | duvelisib -0.031 | tozasertib 0.038 | doramapimod 0.109

C2orf49 isoform 2 (UniProt Q9BVC5)
inactive: Tubastatin A 0.005

CAND1 (UniProt F5H6I6)
inactive: Tubastatin A 0.082 | [2] 0.036 | [3] 0.119 | encorafenib -0.072 | [4] 0.108 | alisertib -0.273 | [1] 0.027 | gefitinib -0.061 | lapatinib -0.043 | pictilisib -0.07 | crizotinib -0.127 | duvelisib -0.022 | tozasertib -0.077 | doramapimod -0.124 | bafetinib -0.042

CANX (UniProt D6RHJ3)
inactive: defactinib 0.174 | alisertib 0.068 | [1] 0.07 | gefitinib -0.242 | lapatinib -0.017

C16orf70 (UniProt Q9BSU1)
inactive: Tubastatin A 0.075 | [2] 0.082 | defactinib 0.216 | [3] -0.005 | encorafenib 0.04 | [4] -0.135 | [1] 0.076 | lapatinib -0.002 | pictilisib -0.076 | crizotinib 0.058 | duvelisib -0.013 | tozasertib 0.018 | doramapimod 0.116 | bafetinib -0.045

C14orf119 (UniProt Q9NWQ9)
inactive: alvocidib 0.041 | crizotinib -0.126 | [5] 0.039 | gandotinib -0.163 | doramapimod 0.015 | [6] 0.055

C5orf24 (UniProt Q7Z6I8)
inactive: crizotinib -0.015 | doramapimod -0.013
